Experimental data from patent US20050281867A1, “Nitric oxide inducing agents” (priority 2003, published 2005).
Some entries share one result that the patent states for a list of compounds.

Tested on: kidney failure
Test: Treatment of patients with kidney failure on dialysis
Assay type: in vivo, human

insulin
creatinine levels decreased to (after approximately 3-6 months, before treatment 16-17 mg/dL): 11 to 14 mg/dL
improvement in kidney function (thirty patients with kidney failure on dialysis, treated approximately 3-6 months): 40-60%
